Results are given in words; binding and its absence hold for the method and conditions named. In cells and extracts the contact can be indirect. These calls come from enrichment with a bait or labelling near it, and not all partners need be listed. Where a sequence is shown, tags or fusion partners need not be part of it.
Target: T1, HA-DERL1 (Derlin-1) expressed in ZR-7530 and MDA-MB-231 cells (human) (UniProt Q9BUN8)
T1 sequence: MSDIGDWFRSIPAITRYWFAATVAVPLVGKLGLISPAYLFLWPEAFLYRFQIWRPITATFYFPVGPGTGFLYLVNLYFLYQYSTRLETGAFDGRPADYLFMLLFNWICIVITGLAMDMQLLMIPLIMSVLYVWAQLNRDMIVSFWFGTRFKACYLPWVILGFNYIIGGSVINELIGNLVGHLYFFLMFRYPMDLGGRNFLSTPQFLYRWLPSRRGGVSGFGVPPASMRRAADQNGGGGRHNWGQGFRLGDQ
Assay: affinity purification with mass spectrometry; HA-DERL1 transfected into ZR-7530 and MDA-MB-231 cells; HA-binding magnetic beads; LC-MS/MS (Q Exactive)

Sequences of proteins named here, by UniProt entry; tags and fusion partners are left off.
UniProt Q9Y4K3: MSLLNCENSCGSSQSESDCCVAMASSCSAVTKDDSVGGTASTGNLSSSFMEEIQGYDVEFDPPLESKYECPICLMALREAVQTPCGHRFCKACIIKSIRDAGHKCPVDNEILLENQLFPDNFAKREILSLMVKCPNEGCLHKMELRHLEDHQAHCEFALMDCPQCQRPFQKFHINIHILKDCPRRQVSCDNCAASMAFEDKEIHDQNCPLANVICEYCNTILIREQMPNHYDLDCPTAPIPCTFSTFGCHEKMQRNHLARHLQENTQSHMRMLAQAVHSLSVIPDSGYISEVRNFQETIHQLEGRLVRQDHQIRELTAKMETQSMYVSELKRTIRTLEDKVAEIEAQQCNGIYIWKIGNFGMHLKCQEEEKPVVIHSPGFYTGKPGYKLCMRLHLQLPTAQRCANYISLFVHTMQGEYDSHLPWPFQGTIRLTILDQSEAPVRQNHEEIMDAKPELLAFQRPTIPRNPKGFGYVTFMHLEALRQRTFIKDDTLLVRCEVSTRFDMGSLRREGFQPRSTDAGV

- binding: binds
Substance: tumor necrosis factor receptor-associated factor 6 (TRAF6), endogenous in ZR-7530 and MDA-MB-231 cells (from UniProt Q9Y4K3 1-522)

— PMC11165795
